Assay results taken from US20250154277A1 (CONCEPT TO MEDICINE BIOTECH, published 2025).
Results are given in words; binding and its absence hold for the method and conditions named. Some binding calls cover weakened binding; strength is not graded here.

T1: human 5T4 expressed on cells (human, UniProt Q13641 32-420)
T1 construct: whole, on cells; also called CHOK1-hu5T4; CHO-K1-expressing human 5T4
T1 sequence (looked up): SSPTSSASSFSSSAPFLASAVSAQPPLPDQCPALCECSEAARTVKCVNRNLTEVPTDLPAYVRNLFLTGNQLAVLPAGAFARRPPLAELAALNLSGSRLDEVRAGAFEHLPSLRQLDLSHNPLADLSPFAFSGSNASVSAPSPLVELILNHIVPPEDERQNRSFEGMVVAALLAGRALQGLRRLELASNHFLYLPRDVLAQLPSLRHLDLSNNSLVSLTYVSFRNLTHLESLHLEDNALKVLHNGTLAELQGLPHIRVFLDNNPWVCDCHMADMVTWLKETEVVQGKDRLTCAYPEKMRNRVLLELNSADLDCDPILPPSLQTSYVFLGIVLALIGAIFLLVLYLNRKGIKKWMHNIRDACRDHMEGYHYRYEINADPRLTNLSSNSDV


Assays:
[1] = target: T1, human 5T4 expressed on cells; experiment: flow cytometry, CHOK1-hu5T4 cells
[2] = target: T1, human 5T4 expressed on cells; experiment: flow cytometry, CHOK1-hu5T4 cells (FIG. 18)

binding [1] | binding [2] | Binder
binds |  | Hu393E9-53-P2 triAb (protein, not shown: a dimerising Fc or GST; small tags and cut ends) VH: EVQLVESGGGLVQPGRSLRLSCTASGFTFTDYYMSWVRQAPGKGLEWVGFIRNKGNGYTTEYSASVKGRFTISRDNSKSILYLQMNSLKTEDTAVYYCARYRGNPHYAMDYWGQGTLVTVSS VL: DIQLTQSPSSLSASVGDRVTITCRASESVEFYGTSFLQWYQQKPGKAPKLLIYGASNVESGVPSRFSGSGSGTDFTLTISSLQPEDIATYFCQQSRKVPSTFGGGTKVEIK
binds | binds | trispecific antibody with anti-5T4 portion of Hu286B4-3-P1 (protein, not shown: a dimerising Fc or GST; small tags and cut ends) VH: EVQLQESGPGLVKPSDTLSLTCAVSGYSISNNYYWNWIRQPPGKGLEWIGYITYDASNNYNPSLKNRVTMSRDTSKNQFSLKLSSVTAVDTAVYYCARGGGQLRFDYWGQGTTVTVSS VL: DIQMTQSPSSLSASVGDRVTITCKASQSVSNEVTWYQQKPGKAPKMLIYYASNRYTGVPDRFSGSGYGTDFTFTISSLQPEDIATYYCQQDYSSPWTFGGGTKVEIK
binds | binds | trispecific antibody with anti-5T4 portion of Hu286B4-8-P1 (protein, not shown: a dimerising Fc or GST; small tags and cut ends) VH: EVQLQESGPGLVKPSDTLSLTCAVSGYSISNNYYWNWIRQPPGKGLEWIGYITYDASNNYNPSLKNRITMSRDTSKNQFSLKLSSVTAVDTAVYYCARGGGQLRFDYWGQGTTVTVSS VL: DIQMTQSPSSLSASVGDRVTITCKASQSVSNEVTWYQQKPGKAPKMLIYYASNRYTGVPDRFSGSGYGTDFTFTISSLQPEDIATYYCQQDYSSPWTFGGGTKVEIK
binds | binds | trispecific antibody with anti-5T4 portion of Hu286B4-15-P1 (protein, not shown: a dimerising Fc or GST; small tags and cut ends) VH: EVQLQESGPGLVKPSDTLSLTCAVSGYSISNNYYWNWIRQPPGKGLEWMGYITYDASNNYNPSLKNRITVSRDTSKNQFSLKLSSVTAVDTAVYYCARGGGQLRFDYWGQGTTVTVSS VL: SIVMTQSPSSLSASVGDRVTITCKASQSVSNEVTWYQQKPGKSPKMLIYYASNRYTGVPDRFSGSGYGTDFTFTISSLQPEDIATYFCQQDYSSPWTFGGGTKVEIK
binds | binds | trispecific antibody with anti-5T4 portion of Hu286B4-5-P1 (protein, not shown: a dimerising Fc or GST; small tags and cut ends) VH: EVQLQESGPGLVKPSDTLSLTCAVSGYSISNNYYWNWIRQPPGKGLEWIGYITYDASNNYNPSLKNRVTMSRDTSKNQFSLKLSSVTAVDTAVYYCARGGGQLRFDYWGQGTTVTVSS VL: SIVMTQSPSSLSASVGDRVTITCKASQSVSNEVTWYQQKPGKSPKMLIYYASNRYTGVPDRFSGSGYGTDFTFTISSLQPEDIATYFCQQDYSSPWTFGGGTKVEIK
